Assay results published in the supplement of paper PMC10849652.
This is one part of the list.

Protein sequences, listed by entry. Tags and fused reporters are not part of them. Lines headed by an entry give the natural chain unless they say otherwise; changes in a name come on top.
UniProt Q86SX6: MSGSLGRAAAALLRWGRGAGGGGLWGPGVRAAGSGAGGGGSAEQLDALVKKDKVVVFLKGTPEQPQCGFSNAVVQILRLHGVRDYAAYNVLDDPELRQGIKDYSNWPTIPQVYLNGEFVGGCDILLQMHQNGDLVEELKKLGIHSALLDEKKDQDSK
UniProt Q53EU6: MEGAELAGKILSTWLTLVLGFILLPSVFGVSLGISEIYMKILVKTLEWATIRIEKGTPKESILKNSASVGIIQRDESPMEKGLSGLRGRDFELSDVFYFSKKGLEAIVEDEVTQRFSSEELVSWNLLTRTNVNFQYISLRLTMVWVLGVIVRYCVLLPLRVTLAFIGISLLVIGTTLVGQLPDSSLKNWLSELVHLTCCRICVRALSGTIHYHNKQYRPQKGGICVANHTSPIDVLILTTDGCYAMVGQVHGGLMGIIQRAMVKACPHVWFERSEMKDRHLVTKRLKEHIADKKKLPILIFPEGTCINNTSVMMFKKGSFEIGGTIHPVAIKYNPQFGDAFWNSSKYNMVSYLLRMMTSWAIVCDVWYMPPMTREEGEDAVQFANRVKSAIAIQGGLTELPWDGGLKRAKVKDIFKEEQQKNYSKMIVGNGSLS
UniProt Q04760: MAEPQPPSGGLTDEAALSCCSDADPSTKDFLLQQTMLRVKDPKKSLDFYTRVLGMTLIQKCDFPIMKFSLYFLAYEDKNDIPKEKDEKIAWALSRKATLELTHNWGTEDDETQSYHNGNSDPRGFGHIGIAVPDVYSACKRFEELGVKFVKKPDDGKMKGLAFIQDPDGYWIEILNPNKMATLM
UniProt Q86WP2: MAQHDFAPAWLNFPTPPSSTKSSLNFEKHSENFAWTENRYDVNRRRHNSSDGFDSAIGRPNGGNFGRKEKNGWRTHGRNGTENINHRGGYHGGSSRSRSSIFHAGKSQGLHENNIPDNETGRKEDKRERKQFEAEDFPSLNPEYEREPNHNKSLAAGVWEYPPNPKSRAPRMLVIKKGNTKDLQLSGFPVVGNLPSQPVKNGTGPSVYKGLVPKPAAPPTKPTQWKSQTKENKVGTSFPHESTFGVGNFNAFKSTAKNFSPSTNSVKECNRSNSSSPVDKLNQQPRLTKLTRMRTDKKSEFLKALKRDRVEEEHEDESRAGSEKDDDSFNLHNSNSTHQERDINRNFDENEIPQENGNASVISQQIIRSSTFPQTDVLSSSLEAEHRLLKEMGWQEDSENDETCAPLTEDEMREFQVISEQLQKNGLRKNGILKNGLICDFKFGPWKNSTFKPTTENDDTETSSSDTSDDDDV
UniProt Q9HC44: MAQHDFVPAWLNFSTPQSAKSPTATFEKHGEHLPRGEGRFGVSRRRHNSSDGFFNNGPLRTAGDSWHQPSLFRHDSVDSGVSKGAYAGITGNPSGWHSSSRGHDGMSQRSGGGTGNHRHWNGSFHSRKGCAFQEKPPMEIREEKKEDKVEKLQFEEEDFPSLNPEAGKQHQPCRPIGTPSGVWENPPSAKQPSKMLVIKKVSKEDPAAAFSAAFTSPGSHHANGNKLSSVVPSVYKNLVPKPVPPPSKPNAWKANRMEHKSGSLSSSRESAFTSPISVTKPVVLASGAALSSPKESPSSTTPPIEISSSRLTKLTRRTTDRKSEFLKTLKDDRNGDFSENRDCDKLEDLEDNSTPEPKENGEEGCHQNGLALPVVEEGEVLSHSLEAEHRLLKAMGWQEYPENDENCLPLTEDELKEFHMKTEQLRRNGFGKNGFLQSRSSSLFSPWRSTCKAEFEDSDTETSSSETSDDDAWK
UniProt Q13439: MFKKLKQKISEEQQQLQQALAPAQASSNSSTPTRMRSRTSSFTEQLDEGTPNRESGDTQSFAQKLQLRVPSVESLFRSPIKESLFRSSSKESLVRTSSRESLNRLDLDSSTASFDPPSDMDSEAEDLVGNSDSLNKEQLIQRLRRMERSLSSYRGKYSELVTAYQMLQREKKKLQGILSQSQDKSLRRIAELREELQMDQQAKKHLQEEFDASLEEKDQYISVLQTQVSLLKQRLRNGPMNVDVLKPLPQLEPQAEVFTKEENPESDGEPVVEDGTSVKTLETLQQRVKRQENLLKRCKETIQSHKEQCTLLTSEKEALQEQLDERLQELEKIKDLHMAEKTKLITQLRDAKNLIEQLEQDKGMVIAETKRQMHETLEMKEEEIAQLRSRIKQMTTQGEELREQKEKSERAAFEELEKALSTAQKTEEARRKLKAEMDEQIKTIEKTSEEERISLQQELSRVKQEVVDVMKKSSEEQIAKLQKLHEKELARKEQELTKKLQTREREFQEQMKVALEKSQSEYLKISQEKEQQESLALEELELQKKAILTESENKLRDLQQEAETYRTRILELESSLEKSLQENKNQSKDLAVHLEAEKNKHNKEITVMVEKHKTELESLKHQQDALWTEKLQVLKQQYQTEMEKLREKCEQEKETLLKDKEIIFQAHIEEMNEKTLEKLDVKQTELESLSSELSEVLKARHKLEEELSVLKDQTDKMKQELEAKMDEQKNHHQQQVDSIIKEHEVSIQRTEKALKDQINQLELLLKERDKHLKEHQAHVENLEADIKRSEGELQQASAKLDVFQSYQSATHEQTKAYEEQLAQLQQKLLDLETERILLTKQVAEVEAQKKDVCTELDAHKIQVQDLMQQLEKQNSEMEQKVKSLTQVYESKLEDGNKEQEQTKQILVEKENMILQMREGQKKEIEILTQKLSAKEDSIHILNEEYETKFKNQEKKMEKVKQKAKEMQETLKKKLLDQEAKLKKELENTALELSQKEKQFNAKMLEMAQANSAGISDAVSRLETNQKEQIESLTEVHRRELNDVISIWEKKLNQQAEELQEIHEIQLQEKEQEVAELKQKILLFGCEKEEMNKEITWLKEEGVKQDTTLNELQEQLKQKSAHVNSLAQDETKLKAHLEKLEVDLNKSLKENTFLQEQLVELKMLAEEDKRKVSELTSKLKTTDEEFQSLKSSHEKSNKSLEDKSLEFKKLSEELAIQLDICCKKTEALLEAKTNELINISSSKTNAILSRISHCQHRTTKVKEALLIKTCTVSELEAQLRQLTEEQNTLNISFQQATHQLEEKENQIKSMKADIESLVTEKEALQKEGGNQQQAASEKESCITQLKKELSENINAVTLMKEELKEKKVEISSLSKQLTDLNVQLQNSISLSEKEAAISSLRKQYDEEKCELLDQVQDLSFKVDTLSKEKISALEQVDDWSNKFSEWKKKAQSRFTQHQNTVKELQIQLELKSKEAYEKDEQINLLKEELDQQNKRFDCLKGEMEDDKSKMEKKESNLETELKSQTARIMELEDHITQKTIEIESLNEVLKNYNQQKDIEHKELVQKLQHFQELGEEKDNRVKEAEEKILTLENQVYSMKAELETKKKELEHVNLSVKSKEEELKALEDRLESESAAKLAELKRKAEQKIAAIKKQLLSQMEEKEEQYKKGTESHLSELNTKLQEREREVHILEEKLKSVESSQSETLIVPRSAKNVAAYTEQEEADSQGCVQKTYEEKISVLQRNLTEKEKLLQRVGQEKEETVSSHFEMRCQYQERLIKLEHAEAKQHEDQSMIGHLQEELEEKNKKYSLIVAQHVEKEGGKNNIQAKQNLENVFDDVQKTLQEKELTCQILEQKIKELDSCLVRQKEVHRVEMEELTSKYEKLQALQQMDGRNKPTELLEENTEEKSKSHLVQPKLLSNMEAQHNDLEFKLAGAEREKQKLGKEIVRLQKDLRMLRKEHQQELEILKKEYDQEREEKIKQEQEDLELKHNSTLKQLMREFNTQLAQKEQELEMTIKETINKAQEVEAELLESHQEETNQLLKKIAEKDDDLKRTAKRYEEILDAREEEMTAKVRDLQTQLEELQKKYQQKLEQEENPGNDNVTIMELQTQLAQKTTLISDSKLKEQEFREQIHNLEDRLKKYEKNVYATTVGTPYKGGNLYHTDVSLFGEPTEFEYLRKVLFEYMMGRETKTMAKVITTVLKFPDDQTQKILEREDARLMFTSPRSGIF
UniProt P36959: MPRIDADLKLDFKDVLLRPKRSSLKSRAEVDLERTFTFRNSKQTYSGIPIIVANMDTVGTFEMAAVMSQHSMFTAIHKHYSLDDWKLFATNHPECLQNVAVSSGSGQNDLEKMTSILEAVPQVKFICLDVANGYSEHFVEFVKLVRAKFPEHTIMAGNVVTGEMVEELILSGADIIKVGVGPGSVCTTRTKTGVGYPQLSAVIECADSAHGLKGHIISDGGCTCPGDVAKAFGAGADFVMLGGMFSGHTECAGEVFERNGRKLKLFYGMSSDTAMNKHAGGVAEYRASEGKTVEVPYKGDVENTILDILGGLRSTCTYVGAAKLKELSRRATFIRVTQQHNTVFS
UniProt Q8WWB7: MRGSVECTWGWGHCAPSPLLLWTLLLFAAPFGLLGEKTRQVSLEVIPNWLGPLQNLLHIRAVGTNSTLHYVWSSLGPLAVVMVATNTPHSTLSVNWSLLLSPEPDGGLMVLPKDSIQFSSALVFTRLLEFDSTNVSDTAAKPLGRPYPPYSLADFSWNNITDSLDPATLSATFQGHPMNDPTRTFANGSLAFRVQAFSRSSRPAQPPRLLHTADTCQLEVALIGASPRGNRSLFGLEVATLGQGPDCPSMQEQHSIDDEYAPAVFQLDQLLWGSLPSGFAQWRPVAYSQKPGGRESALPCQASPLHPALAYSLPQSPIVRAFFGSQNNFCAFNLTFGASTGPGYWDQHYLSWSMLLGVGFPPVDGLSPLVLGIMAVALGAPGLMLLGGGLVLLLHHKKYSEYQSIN
UniProt Q03113, whole entry, looked up: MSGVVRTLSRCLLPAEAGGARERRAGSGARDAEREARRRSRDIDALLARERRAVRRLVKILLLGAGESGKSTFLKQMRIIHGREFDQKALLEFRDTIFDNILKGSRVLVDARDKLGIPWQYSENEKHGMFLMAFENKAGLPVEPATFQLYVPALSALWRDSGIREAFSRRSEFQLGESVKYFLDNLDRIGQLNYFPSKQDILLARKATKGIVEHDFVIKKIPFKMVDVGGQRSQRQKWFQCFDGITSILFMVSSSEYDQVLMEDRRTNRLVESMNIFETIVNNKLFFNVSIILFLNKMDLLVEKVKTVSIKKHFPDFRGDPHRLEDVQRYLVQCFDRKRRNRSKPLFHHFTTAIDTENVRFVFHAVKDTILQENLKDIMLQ
UniProt P29992, whole entry, looked up: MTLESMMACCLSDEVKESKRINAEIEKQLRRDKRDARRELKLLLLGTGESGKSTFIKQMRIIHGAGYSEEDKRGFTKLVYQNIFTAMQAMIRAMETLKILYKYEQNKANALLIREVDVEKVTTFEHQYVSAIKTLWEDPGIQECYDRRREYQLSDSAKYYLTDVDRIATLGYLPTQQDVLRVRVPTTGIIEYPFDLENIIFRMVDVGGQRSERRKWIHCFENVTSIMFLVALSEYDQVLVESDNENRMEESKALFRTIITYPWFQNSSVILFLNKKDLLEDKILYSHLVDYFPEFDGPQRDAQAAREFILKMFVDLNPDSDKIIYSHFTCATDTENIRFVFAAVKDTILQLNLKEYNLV
UniProt Q9P107: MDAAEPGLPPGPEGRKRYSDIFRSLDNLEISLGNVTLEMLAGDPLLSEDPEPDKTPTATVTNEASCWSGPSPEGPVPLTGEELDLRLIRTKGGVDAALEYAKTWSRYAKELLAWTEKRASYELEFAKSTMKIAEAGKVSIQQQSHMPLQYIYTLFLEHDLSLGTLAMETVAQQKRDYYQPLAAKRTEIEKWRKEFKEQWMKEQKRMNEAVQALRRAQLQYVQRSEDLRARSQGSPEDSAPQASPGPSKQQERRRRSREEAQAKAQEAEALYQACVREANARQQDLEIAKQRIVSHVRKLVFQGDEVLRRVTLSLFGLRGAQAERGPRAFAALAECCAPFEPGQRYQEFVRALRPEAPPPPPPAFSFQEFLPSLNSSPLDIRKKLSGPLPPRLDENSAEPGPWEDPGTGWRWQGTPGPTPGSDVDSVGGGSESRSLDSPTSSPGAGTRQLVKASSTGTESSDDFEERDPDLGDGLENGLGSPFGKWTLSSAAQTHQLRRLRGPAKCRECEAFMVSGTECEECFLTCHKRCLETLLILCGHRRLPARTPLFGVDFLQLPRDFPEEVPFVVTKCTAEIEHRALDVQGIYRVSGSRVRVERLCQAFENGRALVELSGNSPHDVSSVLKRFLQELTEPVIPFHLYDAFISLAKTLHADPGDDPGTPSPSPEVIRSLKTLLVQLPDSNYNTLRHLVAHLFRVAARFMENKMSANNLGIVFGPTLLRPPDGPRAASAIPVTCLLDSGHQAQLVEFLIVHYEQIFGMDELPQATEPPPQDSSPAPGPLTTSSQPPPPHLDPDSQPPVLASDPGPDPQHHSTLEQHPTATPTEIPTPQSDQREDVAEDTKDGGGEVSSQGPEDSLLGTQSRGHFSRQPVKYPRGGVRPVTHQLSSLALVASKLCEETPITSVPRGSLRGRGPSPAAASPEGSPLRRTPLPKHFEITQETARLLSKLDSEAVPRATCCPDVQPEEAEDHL
UniProt Q9BXV9: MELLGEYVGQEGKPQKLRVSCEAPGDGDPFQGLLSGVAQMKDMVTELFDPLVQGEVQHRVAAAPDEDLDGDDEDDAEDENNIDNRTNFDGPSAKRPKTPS

Experiments:
Test in all cases: log2 fold change, soluble protein after heating vs DMSO (PISA); higher = thermal stabilisation; K562 cells, 10 uM, 30 min; active = over 0.2 and 3.5 SD of the protein, either way, in both replicates (recomputed)
[1] = compound: CS(=O)(=O)c1ccc(-c2cnc(N)c(C(=O)Nc3ccccc3)n2)cc1
Procedure, shortened: (§1)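 K562 cells at 2×10^6 cells/mL were given 10 μM compound for 30 min. Aliquots then went through 3 min of heating across 48°C-58°C, were pooled, and were extracted in PBS with 0.5% NP-40 at 4°C, and the supernatant after 21,000xg for 90 min was quantified by TMTpro 16plex LC-MS/MS with channel sums equalised. Thermal stability relative to control samples, from duplicates, is given as log2 fold change.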

[2] = compound: C[C@@H](Oc1cc(-c2cnn(C3CCNCC3)c2)cnc1N)c1c(Cl)ccc(F)c1Cl [crizotinib]
Procedure, shortened: as §1

[3] = compound: C[C@@H]1COCCN1C2=NC(=NC(=C2)C3(CC3)S(=O)(=O)C)C4=C5C=CNC5=CC=C4
Procedure, shortened: as §1

[4] = compound: C[C@H](C1=CC=C(C=C1)C(=O)NC2=C3C=CNC3=NC=C2)N
Procedure, shortened: as §1

[5] = compound: C[C@H](Nc1ncnc2nc[nH]c12)c1cc2cccc(Cl)c2c(=O)n1-c1ccccc1 [duvelisib]
Procedure, shortened: as §1

[6] = compound: Cc1cc(Nc2cc(N3CCN(C)CC3)nc(Sc3ccc(NC(=O)C4CC4)cc3)n2)n[nH]1 [tozasertib]
Procedure, shortened: as §1

[7] = compound: Cc1cc(SCc2sc(-c3ccc(C(F)(F)F)cc3)nc2C)ccc1OCC(=O)O
Procedure, shortened: as §1

[8] = compound: Cc1ccc(-n2nc(C(C)(C)C)cc2NC(=O)Nc2ccc(OCCN3CCOCC3)c3ccccc23)cc1 [doramapimod]
Procedure, shortened: as §1

[9] = compound: Cc1ccc(C(=O)N(CCCN)[C@@H](c2nc3cc(Cl)ccc3c(=O)n2Cc2ccccc2)C(C)C)cc1 [ispinesib]
Procedure, shortened: as §1

[10] = compound: Cc1ccc(NC(=O)c2ccc(CN3CC[C@H](N(C)C)C3)c(C(F)(F)F)c2)cc1Nc1nccc(-c2cncnc2)n1 [bafetinib]
Procedure, shortened: as §1

[11] = compound: Cc1cn(-c2cc(NC(=O)c3ccc(C)c(Nc4nccc(-c5cccnc5)n4)c3)cc(C(F)(F)F)c2)cn1 [nilotinib]
Procedure, shortened: as §1

[12] = compound: Cc1nc(Nc2n[nH]c3c2CN(C(=O)N[C@H](CN(C)C)c2ccccc2)C3(C)C)c2sccc2n1
Procedure, shortened: as §1

[13] = compound: Cc1nc(Nc2ncc(C(=O)Nc3c(C)cccc3Cl)s2)cc(N2CCN(CCO)CC2)n1 [dasatinib]
Procedure, shortened: as §1

[14] = compound: Cc1ncc(-c2ccnc(Nc3ccc(S(C)(=O)=O)cc3)n2)n1C(C)C
Procedure, shortened: as §1

[15] = compound: Cn1cc(-c2ccc3c(c2)CCN3C(=O)Cc2cccc(C(F)(F)F)c2)c2c(N)ncnc21
Procedure, shortened: as §1

[16] = compound: Cn1cc(-c2ccc3nnc(C(F)(F)c4ccc5ncccc5c4)n3n2)cn1
Procedure, shortened: as §1

[17] = compound: Cn1cncc1[C@@](N)(c1ccc(Cl)cc1)c1ccc2c(c1)c(-c1cccc(Cl)c1)cc(=O)n2C [tipifarnib]
Procedure, shortened: as §1

[18] = compound: FC(F)(F)c1ccc(/C=C/c2nc(COc3ccc(CCCCn4ccnn4)cc3)co2)cc1 [mubritinib]
Procedure, shortened: as §1

[19] = compound: Cc1cc(Nc2cc(CN3CCOCC3)c3nc(C)c(Cc4ccc(Cl)cc4F)n3n2)n[nH]1 [gandotinib]
Procedure, shortened: as §1

[20] = compound: Cc1cccc(CC(=O)N2CCc3c2ccc(-c2cn(C)c4ncnc(N)c24)c3F)n1
Procedure, shortened: as §1

Measured: log2 fold change

GLRX5 (UniProt Q86SX6)
inactive: [1] 0.05 | [2] 0.033 | [3] 0.118 | [4] -0.093 | [5] 0.165 | [6] 0.154 | [7] 0.01 | [8] -0.048 | [9] 0.15 | [10] -0.152 | [11] 0.026 | [12] 0.002 | [13] -0.036 | [14] -0.026 | [15] 0.078 | [16] 0.149 | [17] -0.073 | [18] -0.032

GPAT3 (UniProt Q53EU6)
inactive: [1] 0.039 | [2] 0.166 | [3] -0.02 | [4] 0 | [5] 0.019 | [6] 0.012 | [7] -0.006 | [8] 0.059 | [9] 0.19 | [10] -0.042 | [11] 0.036 | [12] 0.153 | [13] -0.004 | [14] 0.036 | [15] -0.005 | [16] -0.007 | [17] 0.023 | [18] -0.006

GLO1 (UniProt Q04760)
inactive: [1] -0.007 | [2] 0.064 | [3] 0.019 | [4] -0.035 | [5] 0.04 | [19] 0.027 | [6] -0.024 | [7] -0.026 | [8] -0.043 | [9] 0.047 | [10] -0.01 | [20] -0.006 | [11] 0.026 | [12] 0.002 | [13] 0.036 | [14] -0.004 | [15] 0.023 | [16] -0.002 | [17] 0.018 | [18] 0.041

GPS1 isoform 7 (UniProt Q13098)
inactive: [1] -0.011 | [2] 0.002 | [3] 0.046 | [4] -0.077 | [5] 0.014 | [19] -0.021 | [6] 0.001 | [7] -0.025 | [8] -0.014 | [9] 0.027 | [10] -0.048 | [20] 0.026 | [11] -0.001 | [12] -0.001 | [13] 0.001 | [14] -0.005 | [15] 0.016 | [16] -0.003 | [17] 0.007 | [18] 0.033

GPBP1 isoform 2 (UniProt Q86WP2)
inactive: [1] 0.013 | [2] 0.007 | [3] 0.005 | [4] 0.096 | [5] -0.013 | [19] 0.052 | [6] 0.085 | [7] 0.008 | [8] 0.008 | [9] -0.032 | [10] -0.001 | [20] -0.052 | [11] 0.057 | [12] -0.081 | [13] 0.042 | [14] -0.02 | [15] -0.004 | [16] -0.025 | [17] 0.061 | [18] 0.027

GMPS (UniProt P49915)
inactive: [1] 0.022 | [2] -0.119 | [3] 0.102 | [4] -0.033 | [5] 0.006 | [19] -0.125 | [6] -0.054 | [7] 0.015 | [8] 0.002 | [9] -0.006 | [10] 0.007 | [20] 0.023 | [11] -0.046 | [12] 0.006 | [13] -0.101 | [14] -0.027 | [15] 0.087 | [16] 0 | [17] -0.136 | [18] 0.011

GOLGA3 (UniProt Q08378)
inactive: [1] 0.011 | [2] 0.168 | [3] 0.024 | [4] -0.024 | [5] 0.031 | [19] 0.062 | [6] 0.071 | [7] 0.012 | [8] 0.006 | [9] -0.047 | [10] -0.049 | [20] 0.011 | [11] 0.004 | [12] -0.016 | [13] 0.016 | [14] 0.056 | [15] 0.039 | [16] 0.001 | [17] -0.011 | [18] 0.047

GPBP1L1 (UniProt Q9HC44)
inactive: [1] 0.064 | [2] -0.128 | [3] -0.011 | [4] 0.015 | [5] 0.059 | [19] 0.063 | [6] -0.009 | [7] 0.033 | [8] 0.028 | [9] -0.049 | [10] -0.113 | [20] -0.17 | [11] 0.058 | [12] 0.01 | [13] 0.006 | [14] 0.141 | [15] 0.064 | [16] 0.03 | [17] 0.041 | [18] -0.037

GOLGA4 isoform 5 (UniProt Q13439)
inactive: [1] 0.088 | [2] 0.008 | [3] -0.096 | [4] 0.306 | [5] 0.04 | [19] 0.085 | [6] -0.025 | [7] 0.014 | [8] 0.023 | [9] -0.204 | [10] -0.221 | [20] 0.098 | [11] -0.228 | [12] -0.046 | [13] -0.017 | [14] -0.06 | [15] -0.109 | [16] 0.08 | [17] 0.041 | [18] 0.033

GMPR (UniProt P36959)
inactive: [1] 0.008 | [2] 0.015 | [3] 0.054 | [4] -0.048 | [5] 0.07 | [19] -0.03 | [6] -0.041 | [7] 0.048 | [8] -0.015 | [9] 0.049 | [10] -0.026 | [20] 0.014 | [11] -0.016 | [12] 0.017 | [13] -0.039 | [14] -0.007 | [15] 0.015 | [16] 0.016 | [17] -0.063 | [18] 0.014

GLMP (UniProt Q8WWB7)
inactive: [1] 0.049 | [2] 0.178 | [3] 0.017 | [4] 0.075 | [5] 0.001 | [6] 0.012 | [7] 0.058 | [8] -0.089 | [9] 0.079 | [11] 0.077 | [12] 0.023 | [13] 0.062 | [14] 0.017 | [15] 0.317 | [16] 0.005 | [17] -0.002 | [18] -0.004

GNA12 (UniProt Q03113)
inactive: [1] -0.077 | [2] -0.034 | [3] 0.124 | [4] 0.199 | [5] 0.236 | [19] -0.407 | [6] -0.052 | [7] -0.11 | [8] 0.142 | [10] -0.025 | [20] -0.276 | [11] -0.265 | [12] 0.067 | [13] 0.175 | [14] -0.235 | [15] -0.138 | [17] 0.032 | [18] 0.036

GNA11 (UniProt P29992)
inactive: [1] 0.045 | [2] 0.093 | [3] 0.088 | [4] -0.043 | [5] 0.042 | [19] -0.04 | [6] -0.009 | [7] -0.006 | [8] -0.009 | [9] 0.037 | [10] 0.05 | [20] -0.001 | [11] 0.045 | [12] -0.073 | [13] -0.013 | [14] 0.028 | [15] 0.039 | [16] -0.001 | [17] 0.009 | [18] 0.001

GNB1L (UniProt Q9BYB4)
inactive: [1] 0.016 | [2] 0.013 | [3] 0.016 | [4] -0.063 | [5] 0.031 | [19] -0.036 | [6] -0.008 | [7] -0.013 | [8] -0.031 | [9] 0.009 | [10] -0.03 | [20] -0.006 | [11] -0.019 | [12] -0.004 | [13] 0.026 | [14] -0.023 | [15] 0.048 | [16] 0.035 | [17] -0.018 | [18] 0.037

GNAI2 isoform 4 (UniProt P04899)
inactive: [1] 0.073 | [2] 0.113 | [3] 0.034 | [4] -0.081 | [5] 0.082 | [19] -0.013 | [6] 0.015 | [7] 0.011 | [8] -0.017 | [9] 0.001 | [10] 0.079 | [20] -0.033 | [11] 0.13 | [12] 0.011 | [13] 0.028 | [14] -0.007 | [15] 0.001 | [16] 0.017 | [17] -0.04 | [18] -0.03

GMIP (UniProt Q9P107)
inactive: [1] -0.045 | [2] -0.049 | [3] -0.061 | [4] 0.24 | [5] -0.046 | [6] 0.026 | [7] 0.067 | [8] -0.005 | [9] -0.026 | [10] 0.082 | [11] 0.013 | [12] 0.008 | [13] -0.394 | [14] -0.079 | [15] 0.104 | [16] -0.02

GON7 (UniProt Q9BXV9)
inactive: [1] -0.168 | [2] 0.098 | [3] 0.108 | [4] -0.235 | [5] -0.025 | [19] 0.162 | [6] -0.04 | [7] -0.074 | [8] 0.015 | [9] 0.045 | [10] -0.041 | [20] -0.071 | [11] 0.029 | [12] -0.037 | [13] 0.067 | [14] -0.01 | [15] 0.01 | [16] 0.111 | [17] 0.149 | [18] 0.068
